Laboratory results reported in PubChem BioAssay AID651954 (NMMLSC, 2012).
The campaign covered roughly 1,500 compounds. About 160 (11%) were called active. No stated cut-off is given here; in the data, active means inhibition above about 60%; inactive means the rest. The entries are a selection whose mix differs from that of the whole data set.

Assay: inhibitors of lytic granule exocytosis, confirmation, TALL-104 cells, flow cytometry, Cherry Pick01 (AID 651954);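 further: 0% = stimulated vehicle wells and 100% = unstimulated wells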
Settings: LAMP-1 externalization, at 10 µM, hits give high values

**Q.** For `COc1ccc(Br)cc1CNCCc1cccc(Cl)c1`, which inhibition is on record?
**A.** inactive: -1.41%

**Q.** With `CCOC(=O)[C@]12Cc3ccccc3[C@H]1N(C1CCCCC1)C(=O)c1cc(OC)ccc12` as the compound, how does the inhibition read?
**A.** inactive: 5.33%
